In article PMC3036580:
Results are given in words; binding and its absence hold for the method and conditions named. Binding seen in cells or lysates may run through a third protein. Some binding calls cover weakened binding; strength is not graded here. Sequences can lack the tags named with a protein.

T1: growth hormone receptor (rabbit, wild type) (rabbit) (UniProt P19941)
T1 sequence: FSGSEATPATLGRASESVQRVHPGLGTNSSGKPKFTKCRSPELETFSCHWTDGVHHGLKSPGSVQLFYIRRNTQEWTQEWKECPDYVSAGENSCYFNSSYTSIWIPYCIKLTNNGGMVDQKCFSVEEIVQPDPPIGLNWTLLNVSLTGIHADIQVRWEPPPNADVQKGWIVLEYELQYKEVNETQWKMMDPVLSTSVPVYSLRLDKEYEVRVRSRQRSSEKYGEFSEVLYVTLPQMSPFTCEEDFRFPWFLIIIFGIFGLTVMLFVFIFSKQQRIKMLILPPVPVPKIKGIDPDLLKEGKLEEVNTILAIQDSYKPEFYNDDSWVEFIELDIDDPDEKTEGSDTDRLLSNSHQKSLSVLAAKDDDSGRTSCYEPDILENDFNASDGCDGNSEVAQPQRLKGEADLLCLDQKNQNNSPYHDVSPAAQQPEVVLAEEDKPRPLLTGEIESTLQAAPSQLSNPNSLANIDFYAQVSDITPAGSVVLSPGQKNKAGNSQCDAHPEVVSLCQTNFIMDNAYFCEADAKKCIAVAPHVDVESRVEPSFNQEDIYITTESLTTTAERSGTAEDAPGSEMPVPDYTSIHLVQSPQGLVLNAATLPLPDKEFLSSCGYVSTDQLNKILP

T2: GHR-Rluc (rabbit) (UniProt P19941)
T2 sequence: T1 sequence

B1: Flag-Jak2(1-525) (domain or fragment, UniProt Q62120 1-525)
chain: MGMACLTMTEMEATSTSPVHQNGDIPGSANSVKQIEPVLQVYLYHSLGQAEGEYLKFPSGEYVAEEICVAASKACGITPVYHNMFALMSETERIWYPPNHVFHIDESTRHDILYRIRFYFPHWYCSGSSRTYRYGVSRGAEAPLLDDFVMSYLFAQWRHDFVHGWIKVPVTHETQEECLGMAVLDMMRIAKEKDQTPLAVYNSVSYKTFLPKCVRAKIQDYHILTRKRIRYRFRRFIQQFSQCKATARNLKLKYLINLETLQSAFYTEQFEVKESARGPSGEEIFATIIITGNGGIQWSRGKHKESETLTEQDVQLYCDFPDIIDVSIKQANQECSNESRIVTVHKQDGKVLEIELSSLKEALSFVSLIDGYYRLTADAHHYLCKEVAPPAVLENIHSNCHGPISMDFAISKLKKAGNQTGLYVLRCSPKDFNKYFLTFAVERENVIEYKHCLITKNENGEYNLSGTKRNFSNLKDLLNCYQMETVRSDSIIFQFTKCCPPKPKDKSNLLVFRTNGISDVQISPT
B2: Flag-Jak2(Y119E) (enzyme, UniProt Q62120 1-1132)
chain: MGMACLTMTEMEATSTSPVHQNGDIPGSANSVKQIEPVLQVYLYHSLGQAEGEYLKFPSGEYVAEEICVAASKACGITPVYHNMFALMSETERIWYPPNHVFHIDESTRHDILYRIRFEFPHWYCSGSSRTYRYGVSRGAEAPLLDDFVMSYLFAQWRHDFVHGWIKVPVTHETQEECLGMAVLDMMRIAKEKDQTPLAVYNSVSYKTFLPKCVRAKIQDYHILTRKRIRYRFRRFIQQFSQCKATARNLKLKYLINLETLQSAFYTEQFEVKESARGPSGEEIFATIIITGNGGIQWSRGKHKESETLTEQDVQLYCDFPDIIDVSIKQANQECSNESRIVTVHKQDGKVLEIELSSLKEALSFVSLIDGYYRLTADAHHYLCKEVAPPAVLENIHSNCHGPISMDFAISKLKKAGNQTGLYVLRCSPKDFNKYFLTFAVERENVIEYKHCLITKNENGEYNLSGTKRNFSNLKDLLNCYQMETVRSDSIIFQFTKCCPPKPKDKSNLLVFRTNGISDVQISPTLQRHNNVNQMVFHKIRNEDLIFNESLGQGTFTKIFKGVRREVGDYGQLHKTEVLLKVLDKAHRNYSESFFEAASMMSQLSHKHLVLNYGVCVCGEENILVQEFVKFGSLDTYLKKNKNSINILWKLGVAKQLAWAMHFLEEKSLIHGNVCAKNILLIREEDRRTGNPPFIKLSDPGISITVLPKDILQERIPWVPPECIENPKNLNLATDKWSFGTTLWEICSGGDKPLSALDSQRKLQFYEDKHQLPAPKWTELANLINNCMDYEPDFRPAFRAVIRDLNSLFTPDYELLTENDMLPNMRIGALGFSGAFEDRDPTQFEERHLKFLQQLGKGNFGSVEMCRYDPLQDNTGEVVAVKKLQHSTEEHLRDFEREIEILKSLQHDNIVKYKGVCYSAGRRNLRLIMEYLPYGSLRDYLQKHKERIDHKKLLQYTSQICKGMEYLGTKRYIHRDLATRNILVENENRVKIGDFGLTKVLPQDKEYYKVKEPGESPIFWYAPESLTESKFSVASDVWSFGVVLYELFTYIEKSKSPPVEFMRMIGNDKQGQMIVFHLIELLKSNGRLPRPEGCPDEIYVIMTECWNNNVSQRPSFRDLSLRVDQIRDSIAA
B3: YFP-Jak2 Y119E (enzyme, UniProt Q62120 1-1132)
chain: B2 chain

Assays:
[1] = target: T1, growth hormone receptor (rabbit, wild type) (rabbit); assay: co-IP; GHR immunoprecipitated with anti-GHR and protein A beads from lysates of GHR-expressing Hek293 cells transfected with Flag-Jak2 constructs; lysis in 20 mM Tris pH 8.0, 150 mM NaCl, 0.5% NP40; blot with anti-Flag; cells with or without GH for 15 min at 37°C
GHR-Rluc (rabbit) = target: T2, GHR-Rluc (rabbit); assay: FRET or BRET; BRET in living Hek293-TR cells stably expressing GHR-Rluc (donor) and doxycycline-induced YFP-Jak2 (acceptor); ViviRen 60 µM, 37°C, PBS with 0.1% glucose and 25 mM Hepes; without GH or with 200 ng/ml hGH (0-4 min, 10-14 min)

Binder	binding [1]	binding (GHR-Rluc (rabbit))
B1	binds	–
B2	no binding	–
B3	–	no binding
